Test results taken from paper PMC7819943, “Rice protein-binding microarrays: a tool to detect cis-acting elements near promoter regions in rice”.
The list shows a part of the results.

Target: T1, OsSMF1 (Oryza sativa, UniProt Q6ZLB0 1-436)
T1 sequence: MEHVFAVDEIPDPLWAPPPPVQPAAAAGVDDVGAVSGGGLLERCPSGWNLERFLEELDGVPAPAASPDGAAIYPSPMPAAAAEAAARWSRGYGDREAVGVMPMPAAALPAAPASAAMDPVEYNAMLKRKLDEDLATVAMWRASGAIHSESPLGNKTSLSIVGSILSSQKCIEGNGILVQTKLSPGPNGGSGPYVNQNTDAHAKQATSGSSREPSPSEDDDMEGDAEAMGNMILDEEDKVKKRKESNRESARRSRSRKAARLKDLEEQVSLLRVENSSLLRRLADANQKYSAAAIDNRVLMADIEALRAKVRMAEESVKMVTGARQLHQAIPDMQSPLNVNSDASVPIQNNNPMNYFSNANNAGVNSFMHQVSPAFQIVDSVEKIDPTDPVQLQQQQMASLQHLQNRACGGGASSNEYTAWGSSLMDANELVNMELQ
Test: protein-binding microarray (RPBM); PBS, 2% BSA, 51.3 ng/ul salmon testes DNA, 50 uM zinc acetate, 200 nM TF, 25 C, 1 h; high values mean tight binding
Conditions: protein: recombinant; tags: N-terminal polyhistidine and DsRed monomer fusion (pET32a); chain copies: 2; label: CyDye5-dUTP incorporated in the synthesized complementary strand; 3' TTTTT single-stranded linker to array surface; dsDNA, one strand shown
How it was run: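 The binding signal for each feature is its fluorescence intensity in arbitrary units. An Axon 4000B scanner was used to read a custom Agilent array that had been made double-stranded with Cy5-dUTP primer extension, blocked with 2% BSA, incubated at 25 °C for 1 h with 200 nM protein in PBS, 2% BSA, salmon testes DNA and 50 µM zinc acetate, and washed. The protein was an N-terminal polyhistidine–DsRed transcription factor fusion from E. coli BL21-CodonPlus, purified on Ni–NTA.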

| Sequence | binding signal |
| --- | --- |
| TGCTGCAGCATGCATGTATGACAAGGCTCTGCACTATGACCGGAGTCACCTAGTGCAG | 3190 fluorescence intensity (a.u.) |
| AAAAGGTTGGCGTCATTTTGTAGTATATACGTGTAGGTGTCGGAGTCACCTAGTGCAG | 4510 fluorescence intensity (a.u.) |
| TTTCAGTGAACAGATTATTCGGCGATGATGACTCCTGGTACGGAGTCACCTAGTGCAG | 3640 fluorescence intensity (a.u.) |
| CCACCACGTACAGTGCTTTCCTAGGCAGAAGCCCACTATCCGGAGTCACCTAGTGCAG | 3490 fluorescence intensity (a.u.) |
| AATTGATCTTCAGAGCCCACGTAGGTATTAGACTTTCCTACGGAGTCACCTAGTGCAG | 6290 fluorescence intensity (a.u.) |
| TATAGTCTACTTAACTAGCTAATTAAGCCATTGCAACGGGCGGAGTCACCTAGTGCAG | 3840 fluorescence intensity (a.u.) |
| GAACAAACTATCTCACGATCTCACCGTTTAGTCCTTGATGCGGAGTCACCTAGTGCAG | 3630 fluorescence intensity (a.u.) |
| CCTCAATGACATGTGGGTCTATATATGTCTATGACATGTGCGGAGTCACCTAGTGCAG | 3540 fluorescence intensity (a.u.) |
| CTCCTCCTCGCCTCCTCGGTGACTCCGCCCGCCGCCGCTGCGGAGTCACCTAGTGCAG | 3290 fluorescence intensity (a.u.) |
| CAGGTAGCTGCATCGGGCCGCGGGCGCCACCACAACCAGCCGGAGTCACCTAGTGCAG | 3300 fluorescence intensity (a.u.) |
| CCTTGCTAACTCATCTCAATGCCATCTATAAATTCAGCATCGGAGTCACCTAGTGCAG | 3140 fluorescence intensity (a.u.) |
| GAATGACTGAATCTGATCTGTCAGATTGCCTGATGGTTCTCGGAGTCACCTAGTGCAG | 3680 fluorescence intensity (a.u.) |
| GCACCACCGGCGCATCGCGCGTCCTCATCCAGCGAAGCCGCGGAGTCACCTAGTGCAG | 3660 fluorescence intensity (a.u.) |
| GTAATGTGAAAGGGGACGGTGTCAGCGTCATTGCACCAAGCGGAGTCACCTAGTGCAG | 3310 fluorescence intensity (a.u.) |
| GATTGCTTTGAAGCTGTCGTCGTGGCAATTGCTTCCCGCGCGGAGTCACCTAGTGCAG | 5630 fluorescence intensity (a.u.) |
| CGGTGGCGGGAACATGTGGGCGGTGGCAGGAGTGCAGGTGCGGAGTCACCTAGTGCAG | 3810 fluorescence intensity (a.u.) |
| GGTGCGCGTGCCGGCCATTGATGTCACAATTATCGGGCCCCGGAGTCACCTAGTGCAG | 3890 fluorescence intensity (a.u.) |
| TAGTTTAATACTAGTCATCAGCGTAGCATGGCTGTCAAGTCGGAGTCACCTAGTGCAG | 3540 fluorescence intensity (a.u.) |
| CTTGTCCACCAGCTGCCGAATCACCACCACCATCACAACCCGGAGTCACCTAGTGCAG | 5660 fluorescence intensity (a.u.) |
| AACCCACGCCCGAGCCAGAGCCAGGTCGCCGCGCCACCTCCGGAGTCACCTAGTGCAG | 3650 fluorescence intensity (a.u.) |
| ATATATATATATATATATTGTGAGGGGATCTAGTGCCTGGCGGAGTCACCTAGTGCAG | 3320 fluorescence intensity (a.u.) |

In another format: results already given.
Sequence | binding signal
TATAGTCTACTTAACTAGCTAATTAAGCCATTGCAACGGGCGGAGTCACCTAGTGCAG | 3840 fluorescence intensity (a.u.)
CTCCTCCTCGCCTCCTCGGTGACTCCGCCCGCCGCCGCTGCGGAGTCACCTAGTGCAG | 3290 fluorescence intensity (a.u.)

Further results.

| Sequence | binding signal |
| --- | --- |
| TGATGATGAGTTGGGGTTGATTCGTGCTCTATACCACCCCCGGAGTCACCTAGTGCAG | 3310 fluorescence intensity (a.u.) |
| AACGATGTTACTTACCAAGTGACAAGACGTGGACGTGTTGCGGAGTCACCTAGTGCAG | 4550 fluorescence intensity (a.u.) |
| GTAAAGTCACACGTGACACCGTGACAAGCACACCCTTCGCCGGAGTCACCTAGTGCAG | 5030 fluorescence intensity (a.u.) |
| AGCAGTAACCACGAAAGCGCTCGGCTCCACACGCCACGCACGGAGTCACCTAGTGCAG | 3280 fluorescence intensity (a.u.) |
| CCTATGAACAGTTATGACTCCGTCACAAAACAAATGTCACCGGAGTCACCTAGTGCAG | 4160 fluorescence intensity (a.u.) |
| TAATAACAGTATTATAATAAGTTGGTCCAACTCATCTCTCCGGAGTCACCTAGTGCAG | 4870 fluorescence intensity (a.u.) |
| ATGACGATGATGGTGATGGAGTCGGGTACTGGTGATGGTACGGAGTCACCTAGTGCAG | 3550 fluorescence intensity (a.u.) |
| CACCGCGACGCACATACCCACCCGCCGGCCACGCACGAGACGGAGTCACCTAGTGCAG | 4460 fluorescence intensity (a.u.) |
| GGCAGGCTTGCACACAGGTGCAAAGATACGTGTGGCAGACCGGAGTCACCTAGTGCAG | 3240 fluorescence intensity (a.u.) |
| GGCCGTGCAAGCGCCACGTAGCTGCACAAACAAGGCCGTACGGAGTCACCTAGTGCAG | 3820 fluorescence intensity (a.u.) |
| CCCGATAAAGTCCACAATTTGCCATCAGCGGTAAGCGTGGCGGAGTCACCTAGTGCAG | 3910 fluorescence intensity (a.u.) |
| AATTTCTGTCACGGTGTCACTTCACATCAAATCATAAAACCGGAGTCACCTAGTGCAG | 3430 fluorescence intensity (a.u.) |
| GTGTGGCGCTGAACTTAGACACCTCAGCGCCAAATAGCGTCGGAGTCACCTAGTGCAG | 4850 fluorescence intensity (a.u.) |
| AAATGTTATCCACGTAAGAAAGGACTTTGTAGTCTGACTTCGGAGTCACCTAGTGCAG | 6450 fluorescence intensity (a.u.) |
| GCCGACGACGAAGCCGAGGTGGCGTGGCCGCATGGCGGTGCGGAGTCACCTAGTGCAG | 4200 fluorescence intensity (a.u.) |
| AGTGAAGTCACAAGGAAGTGACGAGGATGAGGACGAGGAGCGGAGTCACCTAGTGCAG | 28700 fluorescence intensity (a.u.) |
| ACGGACCTTTGTAGGGTAAGTGTGCGTGTAGATATAAGTGCGGAGTCACCTAGTGCAG | 3310 fluorescence intensity (a.u.) |
| TAAATGACCTGGATTCGTAACCTCACCCCTTCTAATTATTCGGAGTCACCTAGTGCAG | 4070 fluorescence intensity (a.u.) |
| ACTCTCACCATATACCCAGTGCCGTCAGGAGGATGTTGAACGGAGTCACCTAGTGCAG | 4050 fluorescence intensity (a.u.) |
| AATTTAATCGCGATAGATTGGTTTAACTCTAATCCGGGAGCGGAGTCACCTAGTGCAG | 3450 fluorescence intensity (a.u.) |
| AAGCAGCCGCGGTGGCCGTGTACCGCGCAACTCCACGCTACGGAGTCACCTAGTGCAG | 3180 fluorescence intensity (a.u.) |

Single values from the list.
CACCGCGACGCACATACCCACCCGCCGGCCACGCACGAGACGGAGTCACCTAGTGCAG – binding signal: 4460 fluorescence intensity (a.u.)
AATTTCTGTCACGGTGTCACTTCACATCAAATCATAAAACCGGAGTCACCTAGTGCAG – binding signal: 3430 fluorescence intensity (a.u.)
